Assay results as given in article PMC9814232, “Structural insights into the potency and selectivity of covalent pan-FGFR inhibitors” (Communications Chemistry, 2022).

Sequences of proteins named here, by UniProt entry; tags and fusion partners are left off. Residues count along the entry.
UniProt P07947, whole entry: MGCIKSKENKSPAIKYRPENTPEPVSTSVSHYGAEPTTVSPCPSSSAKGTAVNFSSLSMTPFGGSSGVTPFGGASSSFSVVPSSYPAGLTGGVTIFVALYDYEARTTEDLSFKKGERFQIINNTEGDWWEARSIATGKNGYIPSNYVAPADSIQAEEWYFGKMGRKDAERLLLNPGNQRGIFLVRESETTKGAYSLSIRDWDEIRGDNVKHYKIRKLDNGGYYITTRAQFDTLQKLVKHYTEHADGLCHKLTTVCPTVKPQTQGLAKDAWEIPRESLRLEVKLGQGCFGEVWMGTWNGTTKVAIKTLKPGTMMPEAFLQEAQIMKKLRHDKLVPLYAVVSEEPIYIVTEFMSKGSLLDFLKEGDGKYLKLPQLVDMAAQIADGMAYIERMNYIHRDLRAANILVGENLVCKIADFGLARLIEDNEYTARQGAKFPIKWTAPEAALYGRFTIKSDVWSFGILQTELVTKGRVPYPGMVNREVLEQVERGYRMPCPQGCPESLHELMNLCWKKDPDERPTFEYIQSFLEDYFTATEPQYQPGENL
UniProt P08631, 247-526: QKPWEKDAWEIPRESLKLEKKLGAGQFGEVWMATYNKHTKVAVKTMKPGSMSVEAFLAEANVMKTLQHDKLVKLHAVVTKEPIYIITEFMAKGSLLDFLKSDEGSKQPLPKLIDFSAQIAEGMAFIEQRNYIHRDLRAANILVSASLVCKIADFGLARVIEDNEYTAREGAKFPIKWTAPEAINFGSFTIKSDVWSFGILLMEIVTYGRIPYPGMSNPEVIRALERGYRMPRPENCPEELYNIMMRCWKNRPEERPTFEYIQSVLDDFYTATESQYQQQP

Assays:
advanced solid tumors = conditions: pretreated patients with advanced solid tumors, phase 1 dose-escalation; cited from earlier work
SRC = target: T1, SRC (Gallus gallus, UniProt P00523); experiment: ADP-Glo kinase inhibition assay, SRC; type: biochemical, chicken
T1 construct: chicken SRC (residues 251−533); 6×His (N, cleaved yes); made in house; host or cells: E. coli BL21 (DE3), co-expressed with YOPH
Experimental: (§1) FGFRs, SRC and HCK were prepared as previously described[31]–[33]. Briefly, the kinase domain of human FGFR1 (residues 456−765), FGFR2 (residues 453−770), FGFR3 (residues 450−758), FGFR4 (residues 445−753), chicken SRC (residues 251−533) and human HCK (residues 247−526) were respectively cloned into a modified pET28a expression vector with a N-terminal 6×His tag followed by a PreScission or TEV cleavage site. The mutants, FGFR1(V561M), FGFR2(V564F), FGFR3(V555M), FGFR4(V550L), FGFR4(C477A), SRC(C277A), were introduced by PCR using primers with the desired mutations. The primers were synthesized by Tsingke Biotechnolog Co., Ltd., and the sequences were listed in Supplementary Table 2. Then plasmid was transfected into E. coli BL21 (DE3) cells and co-expressed with YOPH to get the non-phosphorylated proteins. Cells were grown in LB at 37 °C and induced for 16 h with 0.5 mM IPTG at 18 °C. Cells were harvested by centrifugation for next purification. All steps of purification were performed at 4 °C. […]
(§2) The ADP-Glo^TM Kinase Assay Kit (Part No #V9101) was purchased from Promega. […] Finally, […] was measured on a multimode plate reader (Perkin-Elmer) after the addition of detection reagent for half an hour to one hour. IC50 values were determined using a three-parameter log [Inhibitor] versus response model in GraphPad Prism software.

SRC(C277A) = target: T2, SRC(C277A) (Gallus gallus, UniProt P00523, C277A); experiment: ADP-Glo kinase inhibition assay, SRC(C277A); type: biochemical, chicken
T2 construct: chicken SRC (residues 251−533); made in house; host or cells: E. coli BL21 (DE3), co-expressed with YOPH
Experimental: as §1, §2

YES = target: T3, YES (Homo sapiens, UniProt P07947); experiment: ADP-Glo kinase inhibition assay, YES; type: biochemical
T3 construct: purchased Carna 08-175
Experimental: as §1, §2

HCK = target: T4, HCK (Homo sapiens, UniProt P08631); experiment: ADP-Glo kinase inhibition assay, HCK; type: biochemical
T4 construct: human HCK (residues 247−526); 6×His (N, cleaved yes); made in house; host or cells: E. coli BL21 (DE3), co-expressed with YOPH
Experimental: as §1, §2

C=CC(=O)N1CC[C@H](n2nc(C#Cc3cc(OC)cc(OC)c3)c3c(N)ncnc32)C1 [TAS-120]
activity in patients (in words) (advanced solid tumors): promising activity | IC50 (SRC): 1670 nM | IC50 (SRC(C277A)): > 5000 nM | potency against SRC(C277A) (in words) (SRC(C277A); kinase assay): lost their potency | IC50 (YES): 1630 nM | IC50 (HCK): > 5000 nM
